According to article PMC10670506:
No constants are given. Whether binding was seen depends on the method and setting. In cells and extracts the contact can be indirect. These calls come from enrichment with a bait or labelling near it, and not all partners need be listed. Tags and fused reporters may be left off the sequences shown.

T1: N-terminal Strep/FLAG-tagged human BBS1 wild type (human) (UniProt Q8NFJ9)
T1 sequence: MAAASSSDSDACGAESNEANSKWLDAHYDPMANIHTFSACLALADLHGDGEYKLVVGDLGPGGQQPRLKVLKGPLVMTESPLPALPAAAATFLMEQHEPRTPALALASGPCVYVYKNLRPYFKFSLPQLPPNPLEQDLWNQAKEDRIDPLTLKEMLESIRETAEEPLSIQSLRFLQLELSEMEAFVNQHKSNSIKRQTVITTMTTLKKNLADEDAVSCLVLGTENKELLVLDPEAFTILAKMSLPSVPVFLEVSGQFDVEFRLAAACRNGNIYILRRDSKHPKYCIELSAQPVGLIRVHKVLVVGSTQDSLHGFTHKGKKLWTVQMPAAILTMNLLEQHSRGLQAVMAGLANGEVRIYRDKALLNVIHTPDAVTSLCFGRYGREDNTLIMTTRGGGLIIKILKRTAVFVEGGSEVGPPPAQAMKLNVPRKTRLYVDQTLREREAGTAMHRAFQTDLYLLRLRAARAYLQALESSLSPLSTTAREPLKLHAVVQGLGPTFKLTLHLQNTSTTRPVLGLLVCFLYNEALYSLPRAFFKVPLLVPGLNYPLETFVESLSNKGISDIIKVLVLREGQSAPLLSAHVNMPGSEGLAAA

B1: TTC8 (protein, UniProt Q8TAM2 1-541)
chain: MSSEMEPLLLAWSYFRRRKFQLCADLCTQMLEKSPYDQEPDPELPVHQAAWILKARALTEMVYIDEIDVDQEGIAEMMLDENAIAQVPRPGTSLKLPGTNQTGGPSQAVRPITQAGRPITGFLRPSTQSGRPGTMEQAIRTPRTAYTARPITSSSGRFVRLGTASMLTSPDGPFINLSRLNLTKYSQKPKLAKALFEYIFHHENDVKTIHLEDVVLHLGIYPFLLRNKNHIEKNALDLAALSTEHSQYKDWWWKVQIGKCYYRLGMYREAEKQFKSALKQQEMVDTFLYLAKVYVSLDQPVTALNLFKQGLDKFPGEVTLLCGIARIYEEMNNMSSAAEYYKEVLKQDNTHVEAIACIGSNHFYSDQPEIALRFYRRLLQMGIYNGQLFNNLGLCCFYAQQYDMTLTSFERALSLAENEEEAADVWYNLGHVAVGIGDTNLAHQCFRLALVNNNNHAEAYNNLAVLEMRKGHVEQARALLQTASSLAPHMYEPHFNFATISDKIGDLQRSYVAAQKSEAAFPDHVDTQHLIKQLRQHFAML
B2: BBS4 (protein, UniProt Q96RK4 1-519)
chain: MAEERVATRTQFPVSTESQKPRQKKAPEFPILEKQNWLIHLHYIRKDYEACKAVIKEQLQETQGLCEYAIYVQALIFRLEGNIQESLELFQTCAVLSPQSADNLKQVARSLFLLGKHKAAIEVYNEAAKLNQKDWEISHNLGVCYIYLKQFNKAQDQLHNALNLNRHDLTYIMLGKIHLLEGDLDKAIEVYKKAVEFSPENTELLTTLGLLYLQLGIYQKAFEHLGNALTYDPTNYKAILAAGSMMQTHGDFDVALTKYRVVACAVPESPPLWNNIGMCFFGKKKYVAAISCLKRANYLAPFDWKILYNLGLVHLTMQQYASAFHFLSAAINFQPKMGELYMLLAVALTNLEDIENAKRAYAEAVHLDKCNPLVNLNYAVLLYNQGEKKNALAQYQEMEKKVSLLKDNSSLEFDSEMVEMAQKLGAALQVGEALVWTKPVKDPKSKHQTTSTSKPASFQQPLGSNQALGQAMSSAAAYRTLPSGAGGTSQFTKPPSLPLEPEPAVESSPTETSEQIREK
B3: BBS2 (protein, UniProt Q9BXC9 1-721)
chain: MLLPVFTLKLRHKISPRMVAIGRYDGTHPCLAAATQTGKVFIHNPHTRNQHVSASRVFQSPLESDVSLLSINQAVSCLTAGVLNPELGYDALLVGTQTNLLAYDVYNNSDLFYREVADGANAIVLGTLGDISSPLAIIGGNCALQGFNHEGSDLFWTVTGDNVNSLALCDFDGDGKKELLVGSEDFDIRVFKEDEIVAEMTETEIVTSLCPMYGSRFGYALSNGTVGVYDKTSRYWRIKSKNHAMSIHAFDLNSDGVNELITGWSNGKVDARSDRTGEVIFKDNFSSAIAGVVEGDYRMDGHIQLICCSVDGEIRGYLPGTAEMRGNLMDTSAEQDLIRELSQKKQNLLLELRNYEENAKAELASPLNEADGHRGIIPANTRLHTTLSVSLGNETQTAHTELRISTSNDTIIRAVLIFAEGIFTGESHVVHPSIHNLSSSICIPIVPPKDVPVDLHLKAFVGYRSSTQFHVFESTRQLPRFSMYALTSLDPASEPISYVNFTIAERAQRVVVWLGQNFLLPEDTHIQNAPFQVCFTSLRNGGHLHIKIKLSGEITINTDDIDLAGDIIQSMASFFAIEDLQVEADFPVYFEELRKVLVKVDEYHSVHQKLSADMADHSNLIRSLLVGAEDARLMRDMKTMKSRYMELYDLNRDLLNGYKIRCNNHTELLGNLKAVNQAIQRAGRLRVGKPKNQVITACRDAIRSNNINTLFKIMRVGTASS
B4: BBS5 (protein, UniProt Q8N3I7 1-341)
chain: MSVLDALWEDRDVRFDLSAQQMKTRPGEVLIDCLDSIEDTKGNNGDRGRLLVTNLRILWHSLALSRVNVSVGYNCILNITTRTANSKLRGQTEALYILTKCNSTRFEFIFTNLVPGSPRLFTSVMAVHRAYETSKMYRDFKLRSALIQNKQLRLLPQEHVYDKINGVWNLSSDQGNLGTFFITNVRIVWHANMNDSFNVSIPYLQIRSIKIRDSKFGLALVIESSQQSGGYVLGFKIDPVEKLQESVKEINSLHKVYSASPIFGVDYEMEEKPQPLEALTVEQIQDDVEIDSDGHTDAFVAYFADGNKQQDREPVFSEELGLAIEKLKDGFTLQGLWEVMS
B5: BBS9 (protein, UniProt Q3SYG4 1-887)
chain: MSLFKARDWWSTILGDKEEFDQGCLCLANVDNSGNGQDKIIVGSFMGYLRIFSPHPAKTGDGAQAEDLLLEVDLRDPVLQVEVGKFVSGTEMLHLAVLHSRKLCVYSVSGTLGNVEHGNQCQMKLMYEHNLQRTACNMTYGSFGGVKGRDLICIQSMDGMLMVFEQESYAFGRFLPGFLLPGPLAYSSRTDSFLTVSSCQQVESYKYQVLAFATDADKRQETEQQKLGSGKRLVVDWTLNIGEQALDICIVSFNQSASSVFVLGERNFFCLKDNGQIRFMKKLDWSPSCFLPYCSVSEGTINTLIGNHNNMLHIYQDVTLKWATQLPHIPVAVRVGCLHDLKGVIVTLSDDGHLQCSYLGTDPSLFQAPNVQSRELNYDELDVEMKELQKIIKDVNKSQGVWPMTEREDDLNVSVVVSPNFDSVSQATDVEVGTDLVPSVTVKVTLQNRVILQKAKLSVYVQPPLELTCDQFTFEFMTPDLTRTVSFSVYLKRSYTPSELEGNAVVSYSRPTDRNPDGIPRVIQCKFRLPLKLICLPGQPSKTASHKITIDTNKSPVSLLSLFPGFASQSDDDQVNVMGFHFLGGARITVLASKTSQRYRIQSEQFEDLWLITNELILRLQEYFEKQGVKDFACSFSGSIPLQEYFELIDHHFELRINGEKLEELLSERAVQFRAIQRRLLARFKDKTPAPLQHLDTLLDGTYKQVIALADAVEENQGNLFQSFTRLKSATHLVILLIALWQKLSADQVAILEAAFLPLQEDTQELGWEETVDAAISHLLKTCLSKSSKEQALNLNSQLNIPKDTSQLKKHITLLCDRLSKGGRLCLSTDAAAPQTMVMPGGCTTIPESDLEERSVEQDSTELFTNHRHLTAETPRPEVSPLQGVSE

target: T1, N-terminal Strep/FLAG-tagged human BBS1 wild type (human); assay: affinity purification with mass spectrometry; Strep/FLAG-tagged BBS1 bait transfected into HEK293T; lysis in 1x TBS, 0.5% Nonidet P40; Strep-based purification on beads for 90 min, Strep elution; label-free quantification against C-terminal Strep/FLAG-tagged RAF1 control; 9 biological replicates

binding, binds:
B1
B2
B3
B4
B5
